{"source": "PubChem BioAssay AID1224830 (NIAID, 2016)", "purpose": "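Genes whose knock-down alters the TNF-alpha reporter response to LPS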 (primary screen)", "system": "human THP-1 monocytic leukaemia cells, TNF dual-luciferase reporter clone, PMA-differentiated to macrophage-like cells", "reagents": "siRNA pool against human genes, 50 nM", "duration": "LPS for 4 h, given about 3 days after siRNA transfection", "treatment": "bacterial LPS (TLR4 ligand), 10 ng/ml", "detection": "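TNF firefly reporter luminescence divided by renilla, normalised to the plate median, then turned into a robust z-score for each replicate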", "direction": "TNF reporter robust z-score: higher = stronger TNF reporter response to LPS", "hit rule": "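Each well counts as active if its z-score is over 2.8 or under -1.5; controls are left without a call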", "note": "In all, the deposit lists about 18,000 reagents; below is a part drawn at random. In the full data, about 2,900 (16%) are marked active. 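Calls are made per well; low scores hint the gene aids the LPS response, high scores that it dampens it.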 Repeated entries: four replicate wells of each siRNA pool."}
The opening 4 records, ahead of the listing:
{"target": "MAPK8", "TNF reporter robust z-score": -0.98, "outcome": "inactive"}
{"target": "MAPK8", "TNF reporter robust z-score": -0.73, "outcome": "inactive"}
{"target": "MAPK8", "TNF reporter robust z-score": -0.6, "outcome": "inactive"}
{"target": "MAPK8", "TNF reporter robust z-score": 0.71, "outcome": "inactive"}

The list itself, repeating the preview:
{"target": "MAPK8", "TNF reporter robust z-score": -0.98, "outcome": "inactive"}
{"target": "MAPK8", "TNF reporter robust z-score": -0.73, "outcome": "inactive"}
{"target": "MAPK8", "TNF reporter robust z-score": -0.6, "outcome": "inactive"}
{"target": "MAPK8", "TNF reporter robust z-score": 0.71, "outcome": "inactive"}
{"target": "TAF1L", "TNF reporter robust z-score": 0.41, "outcome": "inactive"}
{"target": "TAF1L", "TNF reporter robust z-score": 1.23, "outcome": "inactive"}
{"target": "TAF1L", "TNF reporter robust z-score": 0.23, "outcome": "inactive"}
{"target": "TAF1L", "TNF reporter robust z-score": 1.5, "outcome": "inactive"}
{"target": "FOCAD", "TNF reporter robust z-score": -0.31, "outcome": "inactive"}
{"target": "FOCAD", "TNF reporter robust z-score": 0.26, "outcome": "inactive"}
{"target": "FOCAD", "TNF reporter robust z-score": -0.37, "outcome": "inactive"}
{"target": "FOCAD", "TNF reporter robust z-score": -0.32, "outcome": "inactive"}
{"target": "LRP4", "TNF reporter robust z-score": 0.59, "outcome": "inactive"}
{"target": "LRP4", "TNF reporter robust z-score": 1.48, "outcome": "inactive"}
{"target": "LRP4", "TNF reporter robust z-score": 0.39, "outcome": "inactive"}
{"target": "LRP4", "TNF reporter robust z-score": -0.66, "outcome": "inactive"}
{"target": "PCYOX1L", "TNF reporter robust z-score": -0.18, "outcome": "inactive"}
{"target": "PCYOX1L", "TNF reporter robust z-score": -0.34, "outcome": "inactive"}
{"target": "PCYOX1L", "TNF reporter robust z-score": 0.01, "outcome": "inactive"}
{"target": "PCYOX1L", "TNF reporter robust z-score": -0.14, "outcome": "inactive"}
{"target": "CSK", "TNF reporter robust z-score": 0.12, "outcome": "inactive"}
{"target": "CSK", "TNF reporter robust z-score": 0.29, "outcome": "inactive"}
{"target": "CSK", "TNF reporter robust z-score": 1.49, "outcome": "inactive"}
{"target": "CSK", "TNF reporter robust z-score": 0.16, "outcome": "inactive"}
{"target": "TSEN15", "TNF reporter robust z-score": -0.52, "outcome": "inactive"}
{"target": "TSEN15", "TNF reporter robust z-score": -0.08, "outcome": "inactive"}
{"target": "TSEN15", "TNF reporter robust z-score": 1.01, "outcome": "inactive"}
{"target": "TSEN15", "TNF reporter robust z-score": -1.2, "outcome": "inactive"}
{"target": "ESPNL", "TNF reporter robust z-score": 1.01, "outcome": "inactive"}
{"target": "ESPNL", "TNF reporter robust z-score": 2.22, "outcome": "inactive"}
{"target": "ESPNL", "TNF reporter robust z-score": 1.59, "outcome": "inactive"}
{"target": "ESPNL", "TNF reporter robust z-score": 1.84, "outcome": "inactive"}
{"target": "SH2B2", "TNF reporter robust z-score": 0.7, "outcome": "inactive"}
{"target": "SH2B2", "TNF reporter robust z-score": 0.92, "outcome": "inactive"}
{"target": "SH2B2", "TNF reporter robust z-score": 1.45, "outcome": "inactive"}
{"target": "SH2B2", "TNF reporter robust z-score": 1.79, "outcome": "inactive"}
{"target": "HLA-A", "TNF reporter robust z-score": 1.29, "outcome": "inactive"}
{"target": "HLA-A", "TNF reporter robust z-score": 2.13, "outcome": "inactive"}
{"target": "HLA-A", "TNF reporter robust z-score": 0, "outcome": "inactive"}
{"target": "HLA-A", "TNF reporter robust z-score": 0.93, "outcome": "inactive"}
{"target": "SDK2", "TNF reporter robust z-score": -1.01, "outcome": "inactive"}
{"target": "SDK2", "TNF reporter robust z-score": -1.63, "outcome": "active"}
{"target": "SDK2", "TNF reporter robust z-score": -1.83, "outcome": "active"}
{"target": "SDK2", "TNF reporter robust z-score": -0.89, "outcome": "inactive"}
{"target": "GGT2P", "TNF reporter robust z-score": -0.44, "outcome": "inactive"}
{"target": "GGT2P", "TNF reporter robust z-score": 1.15, "outcome": "inactive"}
{"target": "GGT2P", "TNF reporter robust z-score": 1.26, "outcome": "inactive"}
{"target": "GGT2P", "TNF reporter robust z-score": -0.8, "outcome": "inactive"}
